Results from PubChem BioAssay AID1688 (National Center for Advancing Translational Sciences (NCATS), 2009).
Screen size: about 220,000 compounds; about 2,400 (1.1%) were called active. Inconclusive means that the source gave no clear call. Such entries were picked first, then a sample of the others. Calls follow the shape of the dose curve; as a rule, active = well fitted inhibition curve with a large enough effect; inconclusive = small, poorly fitted or top-dose-only effect, or effect the other way; inactive = no such curve, though single readings can be large or run the other way. Potencies beside an inconclusive call are fits to weak or partial responses and may not hold up.

assay: qHTS Multiplex Assay to Identify Dual Action Probes in a Cell Model of Huntington: Aggregate Formation (GFP); settings: PC12 HttQ103-GFP aggregates, Acumen cytometry, 40 h; activity change, negative = inhibition: at 46.1 µM (top of the series) unless noted; also: nearly all actives have a fitted effect of over 60% in size
Method in brief: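 Inducible Q103 Huntingtin exon 1–GFP PC12 line, 1500 cells/well in phenol red free DMEM with 5% equine and 5% calf serum. Tebufenozide 100 nM induced expression; compounds titrated; aggregates quantified by cytometry.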
% is scaled to controls: 0 for no effect and ±100 for the full control effect; potency is read from the fitted curve at half-maximal effect.

Row | SMILES | Potency | activity change, negative = inhibition
1 | O=C(CNC(=S)NC(=O)c1ccccc1Br)c1ccccc1 | inconclusive: 11.2 µM [activator, partial curve, poor fit] | 
2 | CC(C)(C)C(=O)CSc1ncnc2sc3c(c12)CCC3 | inconclusive: 3.55 µM [inhibitor, single point] | 
3 | O=C(NC(=S)Nc1ccccc1O)c1ccc(-c2ccc(Cl)cc2)o1 | active: 11.2 µM | 
4 | CC1CCCC(C)N1CC(O)COc1c(F)cc(Br)cc1F (stereo not drawn) | inconclusive: 11.2 µM [inhibitor, single point] | 
5 | Cc1ccc(N2C(=O)c3ccccc3NC2C(C)Cc2ccc3c(c2)OCO3)cc1 (stereo not drawn) | inconclusive: 35.5 µM [inhibitor, single point] | 
6 | Cc1ccc2cccnc2c1NC(=S)NC(=O)c1ccccc1 |  | inactive: -2.36%
7 | O=C(N/N=C/c1ccc(OCC(=O)N2CCOCC2)cc1)c1ccccc1Cl | inconclusive: 35.5 µM [activator, single point] | 
8 | Cc1ccc(Cc2c(C)nc3nc(SCC(=O)NCc4ccco4)nn3c2C)cc1 | inconclusive: 35.5 µM [activator, single point] | 
9 | COc1ccc(-c2cnnc(N/N=C/c3ccc(O)c(O)c3)n2)cc1 | active: 11.2 µM | 
10 | Cn1c(SCC(=O)N/N=C/c2ccc([N+](=O)[O-])s2)nnc1-c1ccccc1 | inconclusive: 35.5 µM [inhibitor, single point] | 
11 | Cc1onc(-c2ccccc2Cl)c1C(=O)Nc1ccc(-n2nncc2C(C)(C)C)cc1 |  | inactive: 7.28%
12 | Cc1ccc(NC(=O)CSc2nc3ccccc3c3nc(CCn4cncc4C)nn23)c(C)c1 | inconclusive: 8.91 µM [activator, full curve, poor fit] | 
13 | CN(C1CCCCC1)S(=O)(=O)c1ccc(NC(=O)C2CCCCC2)cc1 | active: 1.78 µM | 
14 | CN(C)C=NC(=O)c1cc(C(=O)c2ccc(Cl)cc2)c[nH]1 | inconclusive: 2.24 µM [inhibitor, partial curve] | 
15 | O=C(C1CC1)N(CCN(C(=O)C1CC1)c1ccccc1)c1ccccc1 | inconclusive: 5.62 µM [inhibitor, single point] | 
16 | COc1ccc(/C=C2/SC(=O)N(CC(O)Cn3c4ccccc4c4ccccc43)C2=O)cc1 (stereo not drawn) | inconclusive: 5.62 µM [inhibitor, single point] | 
17 | CCC(OCC(O)CN1CCN(CCN2C(=O)c3cccc4cccc(c34)C2=O)CC1)c1ccccc1 (stereo not drawn) | inconclusive: 5.62 µM [inhibitor, single point] | 
18 | CCN(CC)c1ccc(C(=S)NCc2ccccc2)cc1 | inconclusive: 35.5 µM [inhibitor, single point] | 

Single entries from the entries so far:
Entry for O=C(CNC(=S)NC(=O)c1ccccc1Br)c1ccccc1 under Potency: inconclusive: 11.2 µM [activator, partial curve, poor fit]
Entry for O=C(NC(=S)Nc1ccccc1O)c1ccc(-c2ccc(Cl)cc2)o1 under Potency: active: 11.2 µM
